PubChem BioAssay AID493014 (National Center for Advancing Translational Sciences (NCATS), 2011)
Out of some 340,000 compounds screened, about 170 (0.05%) were called active. The inconclusive results got no clear call from the source; some entries with a clear call stand among them for comparison. Calls come from the whole dose curve; as a rule, active = well fitted inhibition curve with a large enough effect in the signal ratio, with a control signal flat (not every such curve was filed as active); inconclusive = small, poorly fitted or top-dose-only effect, or effect the other way, or a change in a side signal; inactive = flat fitted curve, though single readings scatter; the % refers to the signal ratio. Potencies beside an inconclusive call are fits to weak or partial responses and may not hold up.

Assay: qHTS Assay to Find Inhibitors of Chronic Active B-Cell Receptor Signaling;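 for activity change, negative = inhibition: plate controls were basal doxycycline-induced cells for no effect and cells given 10 µM MG132 for full effect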
Conditions: ABC-DLBCL IkBa-CBG/CBR reporter, luminescence ratio (green luciferase fused to IkBa over red control in TMD8 lymphoma cells), 4 h; activity change, negative = inhibition: at 46.1 µM (top of the series)
How it was run: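 TMD8 ABC-DLBCL cells carrying doxycycline-inducible green luciferase fused to IkappaBalpha plus unfused red luciferase were exposed to compounds (up to 46 uM) for 4 hrs at 37C. Activity came from the overlap-corrected green/red luminescence ratio.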
Potency is the fitted concentration of half-maximal effect.

| Compound | activity change, negative = inhibition | Potency |
| --- | --- | --- |
| Cc1cc(C)c(C(N)=O)c(Nc2cccc3ccccc23)n1 | inconclusive: 19.2% |  |
| N=c1c2c3c(sc2ncn1N)CCC3 | inactive: 3.24% |  |
| CCC(C)[C@H](N)c1cn([C@@H](CCCCN)C(=O)N2CCNCC2)nn1 (stereo partly drawn) | inactive: -0.814% |  |
| Cc1onc(-c2ccccc2Cl)c1C(=O)OCC(=O)N1CCN(c2ccccc2)CC1 | inactive: 2.78% |  |
| O=C(NCCCc1ccccc1)c1cc([N+](=O)[O-])ccc1Cl | inconclusive: -1.4% |  |
| Cc1ccc(-n2c(SCC(=O)Nc3cc(C)on3)nc3c([nH]c4ccccc43)c2=O)cc1 | inconclusive: 5.18% |  |
| COc1cc(C(=O)OC2CSCC2NC(=O)c2ccccc2)cc(OC)c1OC (stereo not drawn) | inconclusive: -20.3% |  |
| Cc1cc(C)n(C(=O)CCCCCC(=O)n2nc(C)cc2C)n1 |  | inconclusive: 11.6 µM [rising, partial curve, poor fit] |
| Oc1ccc(-c2csc(Nc3cccc4ccccc34)n2)cc1O |  | inconclusive: 25.1 µM [falling, single point] |
| CC1CCN(C(=O)CSc2nnc(NC(=O)Nc3ccccc3)s2)CC1 |  | inconclusive: 10 µM [rising, partial curve, poor fit] |
| CCn1c(SCC(=O)Nc2cc(C)on2)nc2c([nH]c3ccccc32)c1=O | inconclusive: -23.8% |  |
| Cc1ccccc1C(=O)N1CCN=C1SCc1ccc([N+](=O)[O-])cc1 | inconclusive: -20.7% |  |
| Cc1ccccc1C(=O)Nc1nnc(SC(C)C)s1 |  | inconclusive: 35.5 µM [rising, single point] |
| O=C(COC(=O)c1cccnc1Cl)NC(=O)c1ccc(OC(F)F)cc1 | inconclusive: 0.123% |  |
| COc1cc(C(=O)Nc2cc(-c3ccccc3)[nH]n2)cc(OC)c1OC |  | inconclusive: 31.6 µM [falling, partial curve, poor fit] |
| COC(=O)[C@H]1C[C@@H]1[C@H](NC(=O)c1cnccn1)c1ccccc1 | inconclusive: 3.2% |  |
| CN1CCN(c2ccc(S(=O)(=O)N3CCOCC3)cc2NC(=O)COc2ccc(F)cc2Cl)CC1 | inconclusive: 2.69% |  |
| NC(=O)c1ccc(NC(=O)CN2CCN(S(=O)(=O)c3ccc4ccccc4c3)CC2)cc1 | inconclusive: -13.1% |  |
| O=C(CSc1nc2ccccc2c(=O)n1CCCN1CCOCC1)Nc1cccc(S(=O)(=O)N2CCCCCC2)c1 | inconclusive: -10.1% |  |
| Nc1nc(N)c(N=Nc2ccc(S(N)(=O)=O)cc2)c(=O)[nH]1 | inconclusive: 2.93% |  |
| O=c1c2c([N+](=O)[O-])cc([N+](=O)[O-])cc2nc2ccccn12 |  | inconclusive: 7.08 µM [rising, partial curve, poor fit] |
| CC1CCN(CC(O)CN2c3ccccc3Sc3ccccc32)CC1 (stereo not drawn) | inconclusive: -10.6% |  |
| O=C(CCCc1ccccc1)Nc1ccnn1C1CCN(Cc2ccc(CO)o2)CC1 | inactive: -0.277% |  |
| Cc1cc(N2CCC(C)CC2)nc(-n2nc(C)cc2C)n1 | inconclusive: 4.9% |  |
| CC(=O)c1ccc(N2CCCCC2)c(F)c1 | inconclusive: 7.03% |  |
| COc1ccc(/C=C2/SC(=S)N(CCC(=O)N3CCN(C)CC3)C2=O)cc1 |  | inconclusive: 25.1 µM [falling, partial curve] |

Pulled by structure from the list above (3):

| Compound | activity change, negative = inhibition | Potency |
| --- | --- | --- |
| O=C(NCCCc1ccccc1)c1cc([N+](=O)[O-])ccc1Cl | inconclusive: -1.4% |  |
| N=c1c2c3c(sc2ncn1N)CCC3 | inactive: 3.24% |  |
| O=C(COC(=O)c1cccnc1Cl)NC(=O)c1ccc(OC(F)F)cc1 | inconclusive: 0.123% |  |

Additional records:

| Compound | activity change, negative = inhibition | Potency |
| --- | --- | --- |
| O=C(O)CC(NC(=O)C1c2ccccc2Oc2ccccc21)c1ccc(Cl)cc1 (stereo not drawn) | inconclusive: -9.77% |  |
| COC(=O)c1cc(NC(=O)CC2NC3CCCCC3NC2=O)cc(C(=O)OC)c1 (stereo not drawn) | inconclusive: -16.1% |  |
| O=C(CNC(=O)c1ccc(Br)cc1)c1ccccc1 |  | inconclusive: 17.8 µM [falling, partial curve] |
| Clc1ccc(/C=C/c2nc3ccccc3[nH]2)c(Cl)c1 |  | inconclusive: 35.5 µM [falling, single point] |
| C[C@@H]1COC(=O)[C@H](NC(=O)OCC2c3ccccc3-c3ccccc32)C/C=C\C[C@@H](CC(=O)N(CCO)Cc2ccccc2)C(=O)N1 | inactive: 4.69% |  |
| COc1ccc(Cc2nnc(NC(=O)c3ccccc3[N+](=O)[O-])s2)cc1 | inactive: 0.0076% |  |
| COc1ccc(C(=O)NCCOc2cccc(Oc3ccccc3)c2)cc1OC | inconclusive: -6.68% |  |
| Cc1ccc2nc(-c3ccncc3)cc(C(=O)NCCc3ccc(F)cc3)c2c1 | inactive: -1.45% |  |
| Cc1cc(OCC(=O)O)c2ccccc2n1 | inconclusive: 5.34% |  |
| COCCCNc1nc2nonc2nc1N1CCN2CCCC2C1 (stereo not drawn) | inconclusive: -22.5% |  |
| O=C(CNc1ccccc1Cl)Nc1cc(S(=O)(=O)N2CCOCC2)ccc1Cl | inconclusive: -1.98% |  |
| COc1ccc(N2CCN(S(=O)(=O)c3ccc4c(c3)NC(=O)C(C)S4)CC2)cc1 (stereo not drawn) | inconclusive: 0.382% |  |
| CCOC(=O)C1CCCN(CCC(C)c2ccccc2)C1 (stereo not drawn) | inconclusive: 6.12% |  |
| COc1cc(NC(=O)CN2C(=O)C(=O)N(C3CCCC3)C2=O)cc(OC)c1 | inconclusive: 8.21% |  |
| COc1cc(/C=C2/SC(=S)N(CC3CCCO3)C2=O)ccc1O (stereo not drawn) | inconclusive: 20.7% |  |
| Nc1ccc(C(=O)O)cc1[N+](=O)[O-] | inactive: 4.74% |  |
| c1ccc(-c2cnc(-c3cccnc3)o2)cc1 | inconclusive: -14% |  |
| CCCOC(=O)c1ccc(NC(=O)c2ccccc2[N+](=O)[O-])cc1 |  | inconclusive: 7.08 µM [falling, full curve, poor fit] |
| Clc1cccc(-n2ncc3c(NCCCN4CCOCC4)ncnc32)c1 | inconclusive: 18.1% |  |
| O=C(Cc1ccccc1)NNS(=O)(=O)c1ccc(F)cc1 |  | inconclusive: 20 µM [falling, partial curve] |
| CCCOc1ccc(C(=O)NC(=S)NCc2cccnc2)cc1 |  | inconclusive: 14.6 µM [falling, partial curve, poor fit] |
| O=[N+]([O-])c1ccccc1/C=C/C=N/n1c(-c2ccccc2)n[nH]c1=S |  | inconclusive: 18.4 µM [falling, partial curve, poor fit] |
| CCOC(=O)N1CCC(NC(=O)c2cnn3ccccc23)CC1 |  | inconclusive: 20.6 µM [falling, partial curve, poor fit] |
| CCc1ccc(C2C(C#N)=C(N)SC(N)=C2C#N)s1 | inconclusive: 8.12% |  |
| CCOc1ccccc1C(=O)NCc1ccc2c(c1)CCN2C(=O)c1ccccc1 | inconclusive: -17.7% |  |
| CC1CCCC(C)N1CCCNC(=O)c1cc2c(s1)-c1ccccc1OC2 (stereo not drawn) | inconclusive: -12.1% |  |

| Compound | activity change, negative = inhibition | Potency |
| --- | --- | --- |
| CC(=O)N/C(=C\c1ccccc1)C(=O)OC(C)C(=O)Nc1ccccc1F (stereo not drawn) | inactive: -13.5% |  |
| COc1cc(NS(=O)(=O)c2ccc3c(c2)oc(=O)n3C)cc(OC)c1OC | inactive: -26.3% |  |
| O=C(COC(=O)c1ccccc1)NC1CCCCCC1 | inconclusive: 0.0578% |  |
| COc1cc2ccccc2cc1C(=O)N(CCN(C)C)c1nc2ccc(C)cc2s1 |  | inconclusive: 22.4 µM [falling, single point] |
| O=C(Cn1c(-c2cscn2)nc2ccccc21)Nc1ccc(Cl)cc1 |  | inconclusive: 18.4 µM [falling, partial curve, poor fit] |
| Cc1ccc(S(=O)(=O)/N=C(\CCl)N2CCOCC2)cc1 |  | inconclusive: 20.6 µM [falling, partial curve, poor fit] |
| O=C(Nc1ccn(Cc2ccccc2F)n1)c1ccc(COc2ccccc2Cl)cc1 | inconclusive: -14.1% |  |
| CC1CCCC(C)N1C(=O)Cn1c(SCC(=O)NCc2ccc3c(c2)OCO3)nc2ccccc21 (stereo not drawn) | inconclusive: -4.53% |  |
| COc1ccc(C)cc1NC(=S)NNC(=O)c1ccccc1Cl |  | inconclusive: 6.51 µM [falling, partial curve, poor fit] |
| CC(=O)Nc1cccc(-c2nc3ccccc3[nH]2)c1 |  | inconclusive: 15.8 µM [falling, partial curve] |
| CCC/C(=N\NC(=O)c1ccc(OC)c(OC)c1)c1ccccc1 |  | inconclusive: 10 µM [falling, partial curve, poor fit] |
| Cc1cccc(NC(=O)C2CCN(S(=O)(=O)c3ccc4c(c3)OCCO4)CC2)n1 |  | inconclusive: 14.6 µM [rising, partial curve, poor fit] |
| CN/N=C(\Cc1nc2ccccc2[nH]1)c1ccc([N+](=O)[O-])cc1 | inconclusive: -3.19% |  |
| O=c1sc2ccccc2n1CCOc1ccccc1 | inconclusive: 1.36% |  |
| CSC1=N/C(=C\c2ccc(F)cc2)C(=O)S1 | inconclusive: 6.03% |  |
| CCOc1cc(NC(=S)NCC(C)C)c(OCC)cc1NC(=O)c1cccs1 | inactive: 0.58% |  |
| O=C(O)c1cccc(COc2ccc(CO)cc2Cl)c1 | inconclusive: -24.8% |  |
| O=C1c2ccccc2C(=O)N1CCCc1nc(-c2ccccn2)no1 | inactive: -0.0655% |  |
| CCCCOc1cccc(-c2cc(C(=O)NNC(=S)NCC)c3ccccc3n2)c1 | inconclusive: 0.964% |  |
| CC(SC(=S)N1CCOCC1)C(=O)O (stereo not drawn) | inconclusive: 0.653% |  |
| CCOCCn1c(=O)c2c(nc3n2CCCN3Cc2ccccc2)n(C)c1=O | inactive: 0.594% |  |
| O=C(Nc1ccc(Br)cn1)c1cccc(-c2cc3ccccc3oc2=O)c1 |  | inconclusive: 20.6 µM [falling, partial curve] |
| Cc1nn(C2CCS(=O)(=O)C2)c(Cl)c1/C=C/C(=O)OCC(=O)c1cc(C)n(-c2ccc(F)cc2)c1C (stereo not drawn) | inactive: -1.65% |  |
| Cc1cc(C)n(-c2ccc(C(F)(F)F)cc2[N+](=O)[O-])n1 |  | inconclusive: 7.08 µM [falling, full curve, poor fit] |
| Cc1cccc(NC(=O)CN2CCC(C(=O)c3ccc4c(c3)OCCO4)CC2)c1 |  | inconclusive: 10 µM [falling, partial curve, poor fit] |
| O=C(N/N=C/c1c(F)c(F)c(F)c(F)c1F)c1cccc(S(=O)(=O)N2CCOCC2)c1 | inactive: -1.59% |  |
